Laboratory results taken from PubChem BioAssay AID819 (Columbia University Molecular Screening Center, 2007).
Out of some 94,000 compounds screened, about 280 (0.3%) were called active. The shares of active, inactive and inconclusive entries below differ from those in the screen.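 Rule for the calls: active = activation above 40%, about the mean plus 3 SD, also judged a hit on visual image review; inconclusive = activation above 40% but not a hit on visual review; inactive = activation not above 40% and no visual hit.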

Experiment: enhancers of NFkB p65 translocation in HUVEC – imaging, IL-1B stimulus, high-content imaging, primary screen (AID 819);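 note: percent activation is computed from the nuclear over cytoplasmic p65 intensity ratio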
Details: HUVEC IL-1B NFkB p65 nuclear translocation imaging; at 2 µM; hits give high values

Row | Compound | activation
1 | O=c1[nH]c(=O)n(CCC2=CCCCC2)c(O)c1C=NC1CCN(Cc2ccccc2)CC1 | inconclusive: 45.8%
2 | CC(C)(C)c1ccc(O)c(CN2CCN(c3ccccc3)CC2)c1 | inactive: 31.3%
3 | Cc1ccc2c(c1)CC1(CN2C)C(=O)NC(=O)N(CCC2=CCCCC2)C1=O (centres undefined) | active: 66.1%
4 | O=C(c1cc2ccccn2n1)N1CCC2(CC1)OCCO2 | inconclusive: 49.6%
5 | O=C(c1cc(-c2cccnc2)nc2ccc(Cl)cc12)N1CCC2(CC1)OCCO2 | inconclusive: 41.9%
6 | CC(C)NS(=O)(=O)c1ccc(OCC(=O)N2CCN(Cc3ccccc3)CC2)c(Cl)c1 | inconclusive: 42.3%
7 | CSCCC(N=Cc1c(O)n(-c2ccc(Br)cc2)c(=O)[nH]c1=O)C(=O)OC(C)(C)C (centres undefined) | inconclusive: 83.6%
8 | O=c1[nH]c(=O)n(Cc2ccc(F)cc2)c(O)c1C=NCCN1CCCCC1 | inconclusive: 40.5%
9 | C=CCN1C(=O)CSc2ccc(C(=O)N3CCC4(CC3)OCCO4)cc21 | inconclusive: 43.6%
10 | O=C1C2CCCN2C(c2ccc(Cl)cc2)N1c1ccccn1 (centres undefined) | inconclusive: 41.6%
11 | CCCCN1C(=O)C(C2c3ccccc3C(=O)N2Cc2ccccc2)C(=O)NC1=S (centres undefined) | inconclusive: 65.8%
12 | Cn1c(O)c(C(=N)COc2cccc(Cl)c2)c(=O)n(C)c1=O | inactive: -12.7%
13 | CCCC12CN3CN(C1)CC(CCC)(C3)C2O (centres undefined) | inconclusive: 46.8%
14 | Cc1ccc(Cl)cc1-n1c(O)c(C=NCCCN2CCOCC2)c(=O)[nH]c1=O | inconclusive: 46.1%
15 | CCC12C=CCN3CCC4(c5cc(Br)c(OC)cc5N(C)C4C(O)(C(=O)OC)C1OC(C)=O)C32 (centres undefined) | active: 40.5%
16 | Cc1nc2ccccc2c(=O)n1-c1ccccc1C(F)(F)F | inconclusive: 96.4%
17 | O=c1cccc2n1CC1CC2CN(Cc2ccc3c(c2)OCO3)C1 (centres undefined) | inconclusive: 51.3%

Row | Compound | activation
18 | Cc1nn(Cc2ccccc2)c(C)c1C(=O)OCC(=O)Nc1ccccc1SCC#N | inactive: 17.8%
19 | O=C(COc1ccc(Br)cc1)N1CCN(C2CCCC2)CC1 | inconclusive: 58.1%
20 | O=C(CNS(=O)(=O)c1cccs1)N1CCC2(CC1)OCCO2 | inconclusive: 41.9%
21 | CN1C(=O)c2ccccc2Sc2ccc(C(=O)N3CCC4(CC3)OCCO4)cc21 | active: 157%
22 | Cc1cc(C)c(C(=O)CN2CCOCC2)c(C)c1 | inactive: 10.8%
23 | Cc1ccc2c(c1)CC1(CN2C)C(=O)NC(=O)N(c2cc(C)ccc2C)C1=O (centres undefined) | inconclusive: 45.6%
24 | CN1C(=O)C(C2(C#N)CCCCC2)C(=O)N(C)C1=O | active: 48.5%
25 | CCN(CC)CCCN=Cc1c(O)n(-c2cccc(C)c2C)c(=O)[nH]c1=O | inconclusive: 49.3%
26 | O=C1C2CCCN2C(c2cccs2)N1c1ccccn1 (centres undefined) | inconclusive: 64.1%
27 | O=C(COc1ccc(Cl)cc1)N1CCN(Cc2ccccc2)CC1 | active: 42.8%
28 | CCCCCn1c(N)c(C(=O)NCCN2CCOCC2)c2nc3ccccc3nc21 | inconclusive: 58.2%
29 | CC(=O)c1ccc2c(c1)C1C(Cl)C(Sc3ccccc3[N+](=O)[O-])CC1C(c1ccccc1[N+](=O)[O-])N2 (centres undefined) | inconclusive: 57.8%
30 | COc1ccc(-c2nc(CSCC(=O)N3CCC4(CC3)OCCO4)c(C)o2)cc1OC | inconclusive: 42.9%
31 | O=C(CNS(=O)(=O)c1ccc(Br)s1)N1CCC2(CC1)OCCO2 | active: 42.6%
32 | CCN(CC)C(=O)c1ccc(NC(=O)c2cccc(F)c2)cc1 | inactive: 10.5%
33 | CCCCn1c(O)c(C=Nc2c(C)n(C)n(-c3ccccc3)c2=O)c(=O)[nH]c1=O | active: 48.4%
34 | Cc1ccc(C2N(c3cc(C)on3)C(=O)C3CCCN32)cc1 (centres undefined) | inconclusive: 72.5%

Copied from the entries so far, 2 compounds:
Row | Compound | activation
22 | Cc1cc(C)c(C(=O)CN2CCOCC2)c(C)c1 | inactive: 10.8%
23 | Cc1ccc2c(c1)CC1(CN2C)C(=O)NC(=O)N(c2cc(C)ccc2C)C1=O (centres undefined) | inconclusive: 45.6%
